PubChem BioAssay AID1159543, Gurdon Institute – 2015
Purpose: 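Find E2 knock-downs that increase or decrease homology-directed repair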. Cell system: human U2OS osteosarcoma cells. Knock-down reagent: siRNA pool against human genes, about 60 nM. Timing: about 72 h. Challenge: Break induced by I-SceI nuclease and donor plasmids transfected 8 h after siRNA. Read-out: 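Share of green, recombination-repaired cells after I-SceI cutting and donor supply, relative to non-targeting siRNA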. Reading the numbers: HR, cell-cycle adjusted (DJF) and HR, cell-cycle adjusted (WP) and HR, mean of experiments: higher = more homologous recombination repair. Active means: 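Called if recombination adjusted for cell cycle (DJF) differs from control siRNA by over 40% either way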.
In all, the deposit lists 44 reagents; this is a part drawn at random. 26 of all reagents (59%) were called active. 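DJF and WP are two cell-cycle corrections; all calls are decreases, no knock-down raised recombination by 40%.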 A number with no mark means an inactive call. Reagents against one gene are numbered here.

Gene | reagent no. | HR, cell-cycle adjusted (DJF) | HR, cell-cycle adjusted (WP) | HR, mean of experiments
UBE2Z | 1 | 0.789 | 0.795 | 0.829
UBE2C | 1 | 0.804 | 0.788 | 0.837
UBE2D3 | 1 | 0.0766 (active) | 0.0785 | 0.12
TSG101 | 1 | 0.428 (active) | 0.431 | 0.505
UBE2L3 | 1 | 0.332 (active) | 0.344 | 0.375
UBE2D1 | 1 | 0.176 (active) | 0.179 | 0.177
UBE2E1 | 1 | 0.656 | 0.662 | 0.811
UBE2F | 1 | 0.312 (active) | 0.327 | 0.377
RBBP8 | 1 | 0.133 (active) | 0.138 | 0.129
UBE2M | 1 | 0.916 | 0.912 | 1.23
UBE2N | 1 | 0.155 (active) | 0.16 | 0.307
UBE2N | 2 | 0.471 (active) | – | 0.648
UBE2J2 | 1 | 0.641 | 0.623 | 0.912
UBE2K | 1 | 0.422 (active) | – | 0.482
UBE2A | 1 | 0.454 (active) | 0.471 | 0.449
CDC34 | 1 | 0.264 (active) | 0.266 | 0.248
UBE2W | 1 | 0.654 | 0.659 | 0.68
UBE2B | 1 | 0.626 | 0.612 | 0.633
UBE2H | 1 | 0.241 (active) | 0.244 | 0.309
